Results deposited as PubChem BioAssay AID652243 (Drosophila RNAi Screening Center, 2013).

- Purpose: 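Knock-downs that decrease or increase androgen receptor reporter signal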 (primary screen)
- Cell system: Drosophila S2R+ cells
- Reagents: long dsRNA against Drosophila genes
- Duration: 72 h (48 h, then 24 h hormone)
- Challenge: synthetic androgen R1881 at 10 nM for 24 h
- Read-out: 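Firefly light from an androgen-responsive reporter and Renilla control light per well, raw and unnormalised, for each of two replicates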
- Direction: firefly reporter light: higher = more light from androgen-responsive reporter; Renilla control light: higher = more constitutive control signal (cell number, transfection)
- Rule for the call: 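Across duplicate plates, a knock-down whose log firefly/Renilla ratio shifted a set fold down or up from the GFP/LacZ control mean was a hit; the downward cut appears as both 1.5 and 3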
- Calls: active = hit: reporter lowered or raised; inactive = no hit
The deposit covers about 24,000 reagents; this is an unselected part of those that have a named target and a result. In the full data, 246 (1%) got an active call. 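Plates not normalised; calls are printed but the firefly/Renilla ratio behind them is not deposited; fold cut for lowering reported inconsistently.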 Raw values are not corrected between plates. The record does not give: the amount of reagent.

target | dsRNA | firefly reporter light, replicate 1 | firefly reporter light, replicate 2 | Renilla control light, replicate 1 | Renilla control light, replicate 2 | Outcome
CG14238 | DRSC14732 | 1.22e5 | 1.61e5 | 1.61e6 | 1.64e6 | inactive
CG14238 | DRSC29545 | 4.44e5 | 5.78e5 | 8.42e5 | 8.42e5 | inactive
CG43349 | DRSC00039 | 7.05e5 | 9.76e5 | 1.37e6 | 1.83e6 | inactive
CG16935 | DRSC06638 | 68272 | 1.13e5 | 1.25e6 | 1.25e6 | inactive
CG15336 | DRSC18019 | 2.02e5 | 2.28e5 | 2.10e6 | 2.13e6 | inactive
CG15336 | DRSC28008 | 6.65e5 | 4.21e5 | 1.50e6 | 1.45e6 | inactive
GILT1 | DRSC16565 | 56947 | 56283 | 3.40e5 | 4.03e5 | inactive
CG5767 | DRSC06953 | 1.01e5 | 1.09e5 | 1.80e6 | 1.80e6 | inactive
CG5767 | DRSC29980 | 4.55e5 | 3.62e5 | 9.87e5 | 9.06e5 | inactive
Mmp1 | DRSC04493 | 1.29e5 | 1.34e5 | 1.27e6 | 9.85e5 | inactive
CG17186 | DRSC15180 | 3.58e5 | 2.06e5 | 1.90e6 | 1.89e6 | inactive
CG17186 | DRSC27612 | 1.64e5 | 1.67e5 | 2.73e5 | 3.00e5 | inactive
Aladin | DRSC18121 | 1.32e5 | 97757 | 8.44e5 | 8.25e5 | inactive
Aladin | DRSC29497 | 8.47e5 | 1.12e6 | 1.71e6 | 1.71e6 | inactive
mei-P26 | DRSC23049 | 4.94e5 | 5.36e5 | 1.39e6 | 1.51e6 | inactive

Copied from the list:
mei-P26 [DRSC23049], Renilla control light, replicate 2: 1.51e6
For “Renilla control light, replicate 2”, CG15336 [DRSC18019] shows 2.13e6

Additional records follow.
target | dsRNA | firefly reporter light, replicate 1 | firefly reporter light, replicate 2 | Renilla control light, replicate 1 | Renilla control light, replicate 2 | Outcome
CG6276 | DRSC16007 | 47603 | 50896 | 5.22e5 | 4.57e5 | inactive
CG6276 | DRSC27870 | 5.28e5 | 3.94e5 | 1.69e6 | 1.04e6 | inactive
CG7309 | DRSC03045 | 2.29e5 | 2.24e5 | 2.18e6 | 2.05e6 | inactive
CG7309 | DRSC27252 | 2.45e5 | 2.37e5 | 5.05e5 | 5.76e5 | inactive
CG10702 | DRSC02097 | 8.31e5 | 8.57e5 | 1.17e6 | 1.26e6 | inactive
CG10702 | DRSC36848 | – | – | – | – | inactive
CG10702 | DRSC36849 | – | – | – | – | inactive
Cap-H2 | DRSC14908 | 90044 | 1.35e5 | 6.34e5 | 6.80e5 | inactive
Art7 | DRSC04588 | 1.74e5 | 2.77e5 | 1.72e6 | 1.36e6 | inactive
Art7 | DRSC26145 | 3.87e5 | 3.05e5 | 7.06e5 | 6.65e5 | inactive
wfs1 | DRSC15676 | 2.40e5 | 2.30e5 | 2.75e6 | 2.46e6 | inactive
Coq7 | DRSC29047 | 1.49e6 | 1.01e6 | 1.44e6 | 1.13e6 | inactive
Wsck | DRSC13682 | 2.18e5 | 1.15e5 | 1.72e5 | 2.21e5 | inactive
Wsck | DRSC28781 | 3.42e5 | 4.05e5 | 1.15e6 | 1.60e6 | inactive
Wsck | DRSC37076 | – | – | – | – | inactive
CDase | DRSC14932 | 56385 | 53795 | 5.83e5 | 4.07e5 | inactive
Kebab | DRSC00827 | 7.58e5 | 8.89e5 | 2.97e6 | 2.16e6 | inactive
Kebab | DRSC29332 | 3.37e5 | 2.72e5 | 7.71e5 | 7.71e5 | inactive
CstF50 | DRSC15434 | 52961 | 59229 | 4.44e5 | 4.52e5 | inactive
Inx2 | DRSC18783 | 1.14e5 | 1.42e5 | 1.13e6 | 9.38e5 | inactive
Inx2 | DRSC24455 | 4.57e5 | 6.15e5 | 4.32e5 | 6.13e5 | inactive
Rtca | DRSC18517 | 1.19e5 | 72507 | 6.61e5 | 6.81e5 | inactive
ghi | DRSC08985 | 3.83e5 | 5.43e5 | 9.83e5 | 2.13e6 | inactive
unpg | DRSC07713 | 3.30e5 | 1.83e5 | 1.71e6 | 1.11e6 | inactive
unpg | DRSC28861 | 3.31e5 | 3.82e5 | 9.10e5 | 7.42e5 | inactive
